Drawing on article PMC6397292, this text covers binding for one molecule.

Chains of the proteins cited; added tags and fusions are not shown.
UniProt P54274: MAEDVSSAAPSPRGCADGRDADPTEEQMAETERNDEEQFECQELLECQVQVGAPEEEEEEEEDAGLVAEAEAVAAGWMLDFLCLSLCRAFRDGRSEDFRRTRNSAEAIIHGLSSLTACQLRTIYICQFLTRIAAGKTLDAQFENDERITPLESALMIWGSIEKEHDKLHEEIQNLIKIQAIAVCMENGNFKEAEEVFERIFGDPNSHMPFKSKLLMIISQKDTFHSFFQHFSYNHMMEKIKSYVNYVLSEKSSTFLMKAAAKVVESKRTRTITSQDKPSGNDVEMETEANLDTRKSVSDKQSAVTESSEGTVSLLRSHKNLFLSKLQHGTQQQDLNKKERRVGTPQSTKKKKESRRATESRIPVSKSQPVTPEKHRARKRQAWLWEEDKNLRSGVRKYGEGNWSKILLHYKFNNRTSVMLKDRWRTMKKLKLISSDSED
UniProt Q15554: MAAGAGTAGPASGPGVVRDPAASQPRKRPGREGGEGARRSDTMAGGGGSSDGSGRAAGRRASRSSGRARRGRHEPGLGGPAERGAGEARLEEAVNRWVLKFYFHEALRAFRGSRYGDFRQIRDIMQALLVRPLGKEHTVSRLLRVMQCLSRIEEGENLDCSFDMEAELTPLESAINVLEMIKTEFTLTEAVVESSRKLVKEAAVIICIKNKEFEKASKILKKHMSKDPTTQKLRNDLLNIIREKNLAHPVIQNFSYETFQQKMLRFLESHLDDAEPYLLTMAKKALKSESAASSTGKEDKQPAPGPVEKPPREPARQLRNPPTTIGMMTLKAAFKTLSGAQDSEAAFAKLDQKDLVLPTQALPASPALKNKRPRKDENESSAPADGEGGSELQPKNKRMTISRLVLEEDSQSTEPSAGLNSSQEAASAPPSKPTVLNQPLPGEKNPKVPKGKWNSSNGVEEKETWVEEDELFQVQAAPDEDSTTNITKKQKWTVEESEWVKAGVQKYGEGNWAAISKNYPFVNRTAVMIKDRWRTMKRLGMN

These are yes or no findings as the source states them, for the method shown. In cells and extracts the contact can be indirect. Some results given as binding are weak or reduced against the parent protein; the word gives no strength.

In test [1] the target is telomere repeat binding factor 1 (TRF1) (UniProt P54274). Put plainly: co-IP; immunoprecipitation experiments; cells and bait not stated.
Test [2] deals with telomere repeat binding factor 2 (TRF2) (UniProt Q15554). Described as above.

B1: Non-POU domain-containing octamer-binding protein (NONO) (protein, UniProt Q15233 1-471)
chain: MQSNKTFNLEKQNHTPRKHHQHHHQQQHHQQQQQQPPPPPIPANGQQASSQNEGLTIDLKNFRKPGEKTFTQRSRLFVGNLPPDITEEEMRKLFEKYGKAGEVFIHKDKGFGFIRLETRTLAEIAKVELDNMPLRGKQLRVRFACHSASLTVRNLPQYVSNELLEEAFSVFGQVERAVVIVDDRGRPSGKGIVEFSGKPAARKALDRCSEGSFLLTTFPRPVTVEPMDQLDDEEGLPEKLVIKNQQFHKEREQPPRFAQPGSFEYEYAMRWKALIEMEKQQQDQVDRNIKEAREKLEMEMEAARHEHQVMLMRQDLMRRQEELRRMEELHNQEVQKRKQLELRQEEERRRREEEMRRQQEEMMRRQQEGFKGTFPDAREQEIRMGQMAMGGAMGINNRGAMPPAPVPAGTPAPPGPATMMPDGTLGLTPPTTERFGQAATMEGIGAIGGTPPAFNRAAPGAEFAPNKRRRY
On to B1, for which the binding entry in test [1] and in test [2] was “binds” each time.
